Laboratory results reported in article PMC10079970.
Substitutions are numbered along the chain they refer to. These are yes or no findings as the source states them, for the method shown. Binding seen in cells or lysates may run through a third protein. A yes stands for co-enrichment or nearness to the bait. Other partners may have been found. Sequences can lack the tags named with a protein. Values belong to the binder of their own block, whether it stands above or below them.

Key:
Assay in all cases: affinity purification with mass spectrometry; anti-FLAG M2 agarose IP of V5-FLAG-GCase from T-Rex HEK lysate (1x TBS pH 7.4, 0.5% NP40), 2 h at 4 °C, FLAG peptide elution, TMT labelling and LC-MS; empty-vector cells as control; interactors: ≥2 unique peptides, enriched 1.5-fold over control
[1] = biological target: T1, V5-FLAG-tagged wild-type β-glucocerebrosidase (GCase) (human) (UniProt P04062)
T1 sequence: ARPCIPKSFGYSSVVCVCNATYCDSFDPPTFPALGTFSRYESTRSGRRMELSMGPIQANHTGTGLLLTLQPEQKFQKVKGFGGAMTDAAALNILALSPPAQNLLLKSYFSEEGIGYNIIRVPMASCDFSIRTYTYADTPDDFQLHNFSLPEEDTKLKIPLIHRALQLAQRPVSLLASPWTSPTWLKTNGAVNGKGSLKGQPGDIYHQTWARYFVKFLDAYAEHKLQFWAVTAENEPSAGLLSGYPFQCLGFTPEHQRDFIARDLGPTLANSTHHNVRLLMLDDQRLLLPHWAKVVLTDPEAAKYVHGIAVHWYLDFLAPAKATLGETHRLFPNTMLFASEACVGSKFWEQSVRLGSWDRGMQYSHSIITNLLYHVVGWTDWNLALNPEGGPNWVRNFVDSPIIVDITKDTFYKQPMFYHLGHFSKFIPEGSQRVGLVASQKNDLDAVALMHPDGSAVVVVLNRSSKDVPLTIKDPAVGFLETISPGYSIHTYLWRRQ

[2] = biological target: T2, V5-FLAG-tagged E326K β-glucocerebrosidase (GCase) (human) (UniProt P04062)
T2 sequence: T1 sequence with E326K

[3] = biological target: T3, V5-FLAG-tagged L444P β-glucocerebrosidase (GCase) (human) (UniProt P04062)
T3 sequence: T1 sequence with L444P

binding [1]: binds | binding [2]: binds | binding [3]: binds
B1: TIMMDC1 (protein, UniProt Q9NPL8 1-285)
chain: MEVPPPAPRSFLCRALCLFPRVFAAEAVTADSEVLEERQKRLPYVPEPYYPESGWDRLRELFGKDEQQRISKDLANICKTAATAGIIGWVYGGIPAFIHAKQQYIEQSQAEIYHNRFDAVQSAHRAATRGFIRYGWRWGWRTAVFVTIFNTVNTSLNVYRNKDALSHFVIAGAVTGSLFRINVGLRGLVAGGIIGALLGTPVGGLLMAFQKYSGETVQERKQKDRKALHELKLEEWKGRLQVTEHLPEKIESSLQEDEPENDAKKIEALLNLPRNPSVIDKQDKD

binding [1]: binds
B2: LIMP2 (protein, UniProt Q14108 1-478)
chain: MGRCCFYTAGTLSLLLLVTSVTLLVARVFQKAVDQSIEKKIVLRNGTEAFDSWEKPPLPVYTQFYFFNVTNPEEILRGETPRVEEVGPYTYRELRNKANIQFGDNGTTISAVSNKAYVFERDQSVGDPKIDLIRTLNIPVLTVIEWSQVHFLREIIEAMLKAYQQKLFVTHTVDELLWGYKDEILSLIHVFRPDISPYFGLFYEKNGTNDGDYVFLTGEDSYLNFTKIVEWNGKTSLDWWITDKCNMINGTDGDSFHPLITKDEVLYVFPSDFCRSVYITFSDYESVQGLPAFRYKVPAEILANTSDNAGFCIPEGNCLGSGVLNVSICKNGAPIIMSFPHFYQADERFVSAIEGMHPNQEDHETFVDINPLTGIILKAAKRFQINIYVKKLDDFVETGDIRTMVFPVMYLNESVHIDKETASRLKSMINTTLIITNIPYIIMALGVFFGLVFTWLACKGQGSMDEGTADERAPLIRT

binding [1]: binds | binding [2]: binds | binding [3]: binds
B3: LONP1 (enzyme, UniProt P36776 68-959)
chain: FWEASSRGGGAFSGGEDASEGGAEEGAGGAGGSAGAGEGPVITALTPMTIPDVFPHLPLIAITRNPVFPRFIKIIEVKNKKLVELLRRKVRLAQPYVGVFLKRDDSNESDVVESLDEIYHTGTFAQIHEMQDLGDKLRMIVMGHRRVHISRQLEVEPEEPEAENKHKPRRKSKRGKKEAEDELSARHPAELAMEPTPELPAEVLMVEVENVVHEDFQVTEEVKALTAEIVKTIRDIIALNPLYRESVLQMMQAGQRVVDNPIYLSDMGAALTGAESHELQDVLEETNIPKRLYKALSLLKKEFELSKLQQRLGREVEEKIKQTHRKYLLQEQLKIIKKELGLEKDDKDAIEEKFRERLKELVVPKHVMDVVDEELSKLGLLDNHSSEFNVTRNYLDWLTSIPWGKYSNENLDLARAQAVLEEDHYGMEDVKKRILEFIAVSQLRGSTQGKILCFYGPPGVGKTSIARSIARALNREYFRFSVGGMTDVAEIKGHRRTYVGAMPGKIIQCLKKTKTENPLILIDEVDKIGRGYQGDPSSALLELLDPEQNANFLDHYLDVPVDLSKVLFICTANVTDTIPEPLRDRMEMINVSGYVAQEKLAIAERYLVPQARALCGLDESKAKLSSDVLTLLIKQYCRESGVRNLQKQVEKVLRKSAYKIVSGEAESVEVTPENLQDFVGKPVFTVERMYDVTPPGVVMGLAWTAMGGSTLFVETSLRRPQDKDAKGDKDGSLEVTGQLGEVMKESARIAYTFARAFLMQHAPANDYLVTSHIHLHVPEGATPKDGPSAGCTIVTALLSLAMGRPVRQNLAMTGEVSLTGKILPVGGIKEKTIAAKRAGVTCIVLPAENKKDFYDLAAFITEGLEVHFVEHYREIFDIAFPDEQAEALAVER
